# Data as given in PubChem BioAssay AID493014 (National Center for Advancing Translational Sciences (NCATS), 2011).
# This is one part of the list. Shown are side measurements of this screen, not its main read-out; they come without a call. Compounds called inactive in the main read-out are mostly missing here. Words in brackets tell the shape of the fitted curve; partial curves, single points and poor fits give uncertain potencies.
# Test: qHTS Assay to Find Inhibitors of Chronic Active B-Cell Receptor Signaling
# Details: ABC-DLBCL IkBa-CBG/CBR reporter, luminescence ratio (green luciferase fused to IkBa over red control in TMD8 lymphoma cells), 4 h
# Summary of the method: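 TMD8 human ABC-DLBCL cells with doxycycline-inducible IκBα–green luciferase fusion and unfused red luciferase, in 0.5% FBS medium; compounds up to 46 uM, 4 h at 37C. Green/red luminescence ratio, filter-overlap corrected, fitted to concentration-response curves.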
# [1] = measured here: CBR red luminescence, cell number
# [2] = measured here: IkBa-CBG green luminescence
Structure (SMILES),AC50 [1],AC50 [2]
COc1ccc(-n2c(SCC(=O)Nc3ncc(Cl)cc3Cl)nc3ccccc32)cc1,"7.08 µM [falling, full curve]",
Cc1cc(Cl)ccc1NNC(N)=S,"5.62 µM [rising, single point]",
CN1CCN(C(=O)c2cc(C(C)(C)C)cc(C(C)(C)C)c2)CC1,"3.55 µM [rising, full curve, poor fit]",
CCOC(=O)CN1C(=O)/C(=C/c2cccc(Br)c2)Oc2ccccc21,"2 µM [rising, full curve]",
COC(=O)c1cn(NC(=O)CC2CCCCC2)c(=O)c2ccccc12,"29.1 µM [rising, single point]",
COC(=O)C(NC(=O)c1ccc(C)cc1)(Nc1cccc(C)n1)C(F)(F)F (stereo not given),"18.4 µM [rising, partial curve, poor fit]",
O=[N+]([O-])c1c(Nc2ccccc2O)cc(Cl)c2nonc12,"28.2 µM [falling, partial curve, poor fit]","31.6 µM [rising, single point]"
CC(=O)n1cc(/C=N/NC(=O)c2sc(C)nc2C)c2ccccc21,"0.251 µM [falling, full curve, poor fit]",
CCOC(=O)COn1c(=O)c(=O)n(OC)c2ccccc21,"6.31 µM [falling, single point]",
COC(=O)/C=c1/s/c(=C(/C#N)C(=O)N2CCCCC2)n(-c2ccccc2)c1=O,"13 µM [falling, single point]",
O=C(NCC(O)c1ccccc1)c1cccc(S(=O)(=O)N2CCOCC2)c1 (stereo not given),"6.51 µM [falling, partial curve, poor fit]",
O=C(Nc1ccccc1)N1CCCC2CCCCC21 (stereo not given),"14.6 µM [falling, single point]",
CCC1Sc2ccc(S(=O)(=O)CCC(=O)Nc3cccc(Br)c3)cc2NC1=O (stereo not given),"8.91 µM [falling, partial curve, poor fit]",
CCCCCC(=O)N/N=C(\C)c1ccc(Cl)cc1,"7.08 µM [rising, partial curve, poor fit]",
Cc1ccc(Nc2nc(N)nc(CSc3nnnn3-c3ccccc3)n2)cc1,"23.1 µM [rising, single point]",
CC(Cc1ccccc1)C(=O)NCCO (stereo not given),"20.6 µM [rising, partial curve, poor fit]",
CCCOc1ccc(CN(CCC#N)C(=S)NC(=O)c2ccccc2)cc1,"29.1 µM [rising, single point]",
Cc1ccc(Nc2nc(-c3c(C)nc4ccccn34)cs2)cc1,"0.447 µM [rising, full curve, poor fit]","0.501 µM [falling, full curve, poor fit]"

# Two compounds picked at random from those above:
Structure (SMILES),AC50 [1],AC50 [2]
O=C(Nc1ccccc1)N1CCCC2CCCCC21 (stereo not given),"14.6 µM [falling, single point]",
COC(=O)/C=c1/s/c(=C(/C#N)C(=O)N2CCCCC2)n(-c2ccccc2)c1=O,"13 µM [falling, single point]",
